Laboratory results from PubChem BioAssay AID1347076 (National Center for Advancing Translational Sciences (NCATS), 2019).
Hit rate of the full screen: of about 400,000 compounds, about 13,000 (3.2%) were called active. Inconclusive results, whose numbers are uncertain, are shown with a selection of clear calls. Calls follow the shape of the dose curve; as a rule, active = well fitted cell-killing curve with a large enough effect; inconclusive = small, poorly fitted or top-dose-only effect, or effect the other way; inactive = flat fitted curve, though single readings scatter. A potency beside an inconclusive call is a rough fit, not a confirmed value.

Test: qHTS assay for MDR1-selective chemotherapeutics: Primary screen using the drug-selected MDR subline cells KB-V1; also: nearly all actives have a fitted effect of over 60% in size
Conditions: KB-V1 MDR cells viability, CellTiter-Glo, 72 h; activity change, negative = cytotoxicity: at 46.1 µM (top of the series)
Summary of the method: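 In this primary screen, KB-V1 cells overexpressing P-gp are incubated with library compounds (lowest to highest concentration) for 72 h at 37 degrees C before a luminescent ATP viability read.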
% is scaled to controls: 0 for no effect and ±100 for the full control effect; potency is read from the fitted curve at half-maximal effect.

| Compound | Potency | activity change, negative = cytotoxicity |
| --- | --- | --- |
| O=C(Nc1nnc([C@H]2C[C@H](O)[C@@H](CO)O2)s1)NC(c1ccccc1)c1ccccc1 | inactive | – |
| C(=C\c1ccco1)/C=N/n1cnnc1 | inconclusive: 29.1 µM [rising, single point] | – |
| COC(=O)c1ccccc1NC(=O)c1cc2nc(-c3ccccc3)cc(-c3ccccc3)n2n1 | inactive | – |
| Cc1cccc(N2CCN(S(=O)(=O)c3ccc4oc(=O)c5ncn(C)c5c4c3)CC2C)c1 (stereo not drawn) | inconclusive: 29.1 µM [rising, single point] | – |
| N=c1c(C(=O)NCc2ccco2)cc2c(=O)n3ccccc3nc2n1Cc1ccccc1 | inconclusive: 20.6 µM [cytotoxic, partial curve, poor fit] | – |
| CCCC(O)(CCC)C(=O)NNc1ccccc1 | inactive | – |
| CCC(=O)N(Cc1c(C)nn(-c2ccccc2)c1Cl)c1ccc(Cl)cc1 | inconclusive: 7.31 µM [cytotoxic, partial curve] | – |
| COCCN(CCOC)C(=O)COC(=O)c1ccc(Cl)c(S(=O)(=O)N(C)c2ccccc2)c1 | inconclusive: 16.4 µM [cytotoxic, partial curve, poor fit] | – |
| O=CNc1cc(-c2cccc(F)c2)cn2c(-c3ccc(F)c(Cl)c3)cnc12 | active: 23.1 µM | – |
| Cc1cc(C(=O)COc2ccc(C#N)cc2)c(C)n1CC1CCCO1 (stereo not drawn) | inactive | – |
| COc1ccc(N2CCOCC2)c(NC(=O)c2cc3ccccc3o2)c1 | active: 11.6 µM | – |
| CC1=C(C(=O)OC2CCCCC2)C(c2cccnc2)n2ncnc2N1 (stereo not drawn) | inconclusive: 18.4 µM [cytotoxic, single point] | – |
| CC(=O)Nc1c(C(=O)C2CC2)oc2ccccc12 | inconclusive: 18.4 µM [cytotoxic, single point] | – |
| O=C(CSc1ncccn1)N1CCC(Cc2ccccc2)CC1 | inconclusive: 29.1 µM [cytotoxic, single point] | – |
| COC(=O)C1CCN(C(=O)CSc2ccccc2)CC1 | inconclusive: 29.1 µM [rising, single point] | – |
| NC(=O)c1ccccc1NC(=O)NC1CCCCC1 | inactive | – |
| CC(C)(C)OC(=O)C[C@@H]1C/C=C\C[C@@H](CC(=O)N[C@@H](CO)Cc2ccccc2)C(=O)NC[C@@H](c2ccccc2)OC1=O | inconclusive: 23.1 µM [rising, single point] | – |
| COCCn1c(-c2ccc(Cl)cc2)cnc1SCC(=O)NCCc1ccc(OC)c(OC)c1 | inconclusive: 8.2 µM [cytotoxic, partial curve] | – |
| COc1cccc(N2CCN(C(=O)c3c(C)oc4ncnc(N5CCCCC5)c34)CC2)c1 | inactive | – |
| COc1ccc(N2CC3=C(C2=O)C(c2ccc(Br)cc2)NC(=O)N3C)cc1 (stereo not drawn) | active: 25.9 µM | – |
| Cc1cc(Nc2sc(C(=O)c3ccc(F)cc3)c(N)c2C(=O)Nc2ccc(F)cc2)ccc1Cl | inconclusive: 29.1 µM [cytotoxic, single point] | – |
| Cc1ccc(NS(=O)(=O)c2ccc(C(=O)N3CCCCCC3)cc2)cc1 | active: 4.61 µM | – |
| CC(C)CN(CCCNC(=O)CN1C(=O)COc2ccc(S(=O)(=O)N3CCCCCC3)cc21)CC(C)C | inconclusive: 11.6 µM [cytotoxic, partial curve] | – |

| Compound | Potency | activity change, negative = cytotoxicity |
| --- | --- | --- |
| CC1CCN(c2nc(/C=C/c3ccccc3)nc3ccccc23)CC1 | inconclusive: 29.1 µM [cytotoxic, single point] | – |
| CCC(C(=O)NC1CCCC1)N(C(=O)Cn1nnc(-c2ccc(C)o2)n1)c1cccc(OC)c1 (stereo not drawn) | inconclusive: 1.84 µM [cytotoxic, full curve] | – |
| CCCNC(=O)COc1nc2ccccc2nc1N1CCOCC1 | inconclusive: 18.4 µM [cytotoxic, single point] | – |
| COCc1nnc(NC(=O)c2cccs2)s1 | – | inconclusive: -32.9% [cytotoxic] |
| OCCCNc1ncnc2c1[nH]c1ccccc12 | – | inconclusive: 19.1% |
| O=C(NCc1ccccc1Cl)c1ccc(S(=O)(=O)Nc2cccc(C(F)(F)F)c2)cc1 | inconclusive: 23.1 µM [cytotoxic, single point] | – |
| O=C(Nc1ccc(-c2nc3ccccc3[nH]2)cc1)c1c(F)c(F)c(F)c(F)c1F | inactive | – |
| COc1ccccc1C1CCN(Cc2cccc([N+](=O)[O-])c2)CC1 | inconclusive: 8.2 µM [cytotoxic, partial curve] | – |
| C=CCNC(=S)N/N=C/c1ccc(C(C)(C)C)cc1 | inconclusive: 29.1 µM [cytotoxic, single point] | – |
| N#C/C(=C\c1ccc(N2CCOCC2)o1)C(=O)Nc1ccc(O)cc1 | inactive | – |
| COC(=O)c1ccc2c(=O)[nH]c(CSc3nc(C)cs3)nc2c1 | inconclusive: 32.6 µM [rising, single point] | – |
| CC(C)C(NC(=O)c1ccccc1F)C(=O)NCCCn1ccnc1 (stereo not drawn) | inconclusive: 5.8 µM [rising, full curve] | – |
| CCOCCCn1c(=N)c(S(=O)(=O)c2ccc(C)cc2)cc2c(=O)n3ccccc3nc21 | inconclusive: 4.61 µM [cytotoxic, partial curve, poor fit] | – |
| Cc1ccc(N=Nc2c(N)nn3c(C)cc(C)nc23)cc1 | inconclusive: 10.3 µM [cytotoxic, partial curve] | – |
| COc1cc(C#Cc2c(-c3cncn3C)n(C)c3ccc(-c4cc(OC)c(OC)c(OC)c4)cc23)cc(OC)c1 | – | inconclusive: -34.9% [cytotoxic] |
| Cc1ccc(OCC(=O)N(Cc2ccccc2)C(C)(C)C)c([N+](=O)[O-])n1 | active: 23.1 µM | – |
| Cc1ccc(-c2csc(NC(=O)CN3CCOCC3)n2)cc1 | inconclusive: 29.1 µM [cytotoxic, single point] | – |
| N#CC(=Cc1ccncc1)c1ccccc1 | active: 13 µM | – |
| COc1ccc2nc3sc(C(=O)Nc4cc(Cl)c(OC)cc4OC)cc3cc2c1 | inactive | – |
| Cc1ccc(S(=O)(=O)NC(C)C(=O)NCc2ccc(Cl)cc2)cc1 (stereo not drawn) | inconclusive: 0.231 µM [cytotoxic, full curve, poor fit] | – |
| Cc1ccc(NC(=O)CN2CCOCC2)cc1C | inconclusive: 11.6 µM [rising, single point] | – |
| Cc1ccc(C(=O)Nc2ccccc2C(=O)NC(Cc2c[nH]c3ccccc23)C(=O)O)cc1 (stereo not drawn) | inconclusive: 23.1 µM [rising, single point] | – |
| CC(C)C(=O)Nc1ccc(NC(=O)c2cc3ccccc3o2)cc1 | inconclusive: 16.4 µM [cytotoxic, single point] | – |

Fetched by compound from the list above:

| Compound | Potency | activity change, negative = cytotoxicity |
| --- | --- | --- |
| C=CCNC(=S)N/N=C/c1ccc(C(C)(C)C)cc1 | inconclusive: 29.1 µM [cytotoxic, single point] | – |
| COC(=O)c1ccc2c(=O)[nH]c(CSc3nc(C)cs3)nc2c1 | inconclusive: 32.6 µM [rising, single point] | – |
| Cc1ccc(NC(=O)CN2CCOCC2)cc1C | inconclusive: 11.6 µM [rising, single point] | – |
| CCCNC(=O)COc1nc2ccccc2nc1N1CCOCC1 | inconclusive: 18.4 µM [cytotoxic, single point] | – |

More records:

| Compound | Potency | activity change, negative = cytotoxicity |
| --- | --- | --- |
| O=[N+]([O-])c1ccc(/C=N/N2CCN(Cc3ccccc3)CC2)cc1 | inactive | – |
| Cn1c(CCN2CCN(c3ccccn3)CC2)nc2cc(NC(=O)COc3ccc(Cl)cc3)ccc21 | inconclusive: 20.6 µM [cytotoxic, single point] | – |
| CCCc1ccc(OCc2ccc(C(=O)NCc3cccnc3)o2)c(OC)c1 | inconclusive: 8.2 µM [cytotoxic, partial curve] | – |
| COc1ccc(-c2nnc(SC(C)C(=O)NCc3ccc4c(c3)OCO4)n2Cc2ccco2)cc1 (stereo not drawn) | inactive | – |
| CCOCCCn1c(=N)c(C(=O)NCc2ccco2)cc2c(=O)n3ccccc3nc21 | inactive | – |
| O=C(COc1ccc(-c2nnco2)cc1)NCc1ccccc1Cl | inactive | – |
| CCOc1cc(N(CC)CC)ccc1/C=C(/C#N)c1nc2ccccc2[nH]1 | inconclusive: 29.1 µM [cytotoxic, single point] | – |
| Cc1cc(C)cc(N(CCC#N)C(=O)COC(=O)CCc2c[nH]c3ccccc23)c1 | active: 20.6 µM | – |
| Cc1cccc(NC(=S)NC2CC3CCC(C2)N3Cc2ccco2)c1 (stereo not drawn) | inconclusive: 2.31 µM [cytotoxic, full curve] | – |
| CCOC(=O)c1c(C)oc2nc(C)nc(NCc3ccc(C)cc3)c12 | inactive | – |
| O=C(OCc1nnc(-c2ccc([N+](=O)[O-])cc2)o1)C1CC(=O)N(CCc2ccccc2)C1 (stereo not drawn) | inactive | – |
| CCOc1ccc(Br)cc1S(=O)(=O)Nc1ccc(Cl)c(S(=O)(=O)N(C)C)c1 | inconclusive: 16.4 µM [cytotoxic, single point] | – |
| Cc1cccn2c(=O)c3cc(C#N)c(=NC(=O)c4ccccc4)n(Cc4ccco4)c3nc12 | – | inconclusive: -3.06% |
| CCCC1(C(=O)OC)NC(c2ccc(OC)c(OC)c2)C2C(=O)N(c3ccc4c(c3)OCO4)C(=O)C21 (stereo not drawn) | inconclusive: 18.4 µM [cytotoxic, partial curve] | – |
| CC1CN(CCc2ccccc2)c2nc3c(c(=O)[nH]c(=O)n3C)n2C1 (stereo not drawn) | inconclusive: 11.6 µM [cytotoxic, partial curve, poor fit] | – |
| CCOC(=O)c1ccccc1NC(=O)CSc1nc2ncccc2o1 | inactive | – |
| COc1ccc(NC(=O)C2CCN(c3cc(-c4ccccc4)nc4ncnn34)CC2)cc1OC | inconclusive: 18.4 µM [cytotoxic, single point] | – |
| O=C(CN1CCCCCC1)Nc1ccc(Br)cc1[N+](=O)[O-] | inconclusive: 20.6 µM [cytotoxic, partial curve, poor fit] | – |
| CC(C)(C)OC(=O)NCCCC[C@H](NC(=O)c1nc[nH]c1C(=O)NC1CCN(C(=O)OC(C)(C)C)CC1)C(=O)OC(C)(C)C | inconclusive: 18.4 µM [cytotoxic, single point] | – |
| C=CCn1c(O)c(N=NC(=S)Nc2ccccc2F)c2ccccc21 | inactive | – |
| CCn1nc(C(=O)OCC(=O)N(CCC#N)c2ccccc2)c2ccccc2c1=O | inconclusive: 18.4 µM [cytotoxic, partial curve, poor fit] | – |
| CCOc1ccc(NC(=O)CN(C)C(=O)c2cc(S(=O)(=O)N(C)C)ccc2N2CCCC2)cc1OCC | inconclusive: 11.6 µM [cytotoxic, partial curve] | – |
